These are yes or no findings as the source states them, for the method shown. Binding seen in cells or lysates may run through a third protein. For some of these results: Binding can be weak; no strength is given. For some of these results: Sequences can lack the tags named with a protein.

Chains of the proteins cited; added tags and fusions are not shown. Lines headed by an entry give the natural chain unless they say otherwise; changes in a name come on top.
UniProt Q15654: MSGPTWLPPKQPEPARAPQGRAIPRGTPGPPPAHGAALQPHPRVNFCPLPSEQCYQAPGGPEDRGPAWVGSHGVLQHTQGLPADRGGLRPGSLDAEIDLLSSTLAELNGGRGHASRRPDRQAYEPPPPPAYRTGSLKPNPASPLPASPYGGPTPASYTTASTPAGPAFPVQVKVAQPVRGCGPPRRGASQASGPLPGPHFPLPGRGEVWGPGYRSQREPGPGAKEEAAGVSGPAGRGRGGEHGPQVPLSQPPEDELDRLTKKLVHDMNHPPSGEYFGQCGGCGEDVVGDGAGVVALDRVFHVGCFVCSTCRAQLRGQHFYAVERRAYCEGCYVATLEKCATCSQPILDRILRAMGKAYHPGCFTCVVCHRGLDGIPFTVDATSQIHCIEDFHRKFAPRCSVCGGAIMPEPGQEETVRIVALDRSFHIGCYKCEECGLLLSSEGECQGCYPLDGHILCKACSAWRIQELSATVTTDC

Our source for the binding values is article PMC4850058, “TRIP6 antagonizes the recruitment of A20 and CYLD to TRAF6 to promote the LPA2 receptor-mediated TRAF6 activation” (Cell Discovery, 2016).

One assay deals with T1, FLAG-TRAF6 (UniProt P70196).
T1 sequence: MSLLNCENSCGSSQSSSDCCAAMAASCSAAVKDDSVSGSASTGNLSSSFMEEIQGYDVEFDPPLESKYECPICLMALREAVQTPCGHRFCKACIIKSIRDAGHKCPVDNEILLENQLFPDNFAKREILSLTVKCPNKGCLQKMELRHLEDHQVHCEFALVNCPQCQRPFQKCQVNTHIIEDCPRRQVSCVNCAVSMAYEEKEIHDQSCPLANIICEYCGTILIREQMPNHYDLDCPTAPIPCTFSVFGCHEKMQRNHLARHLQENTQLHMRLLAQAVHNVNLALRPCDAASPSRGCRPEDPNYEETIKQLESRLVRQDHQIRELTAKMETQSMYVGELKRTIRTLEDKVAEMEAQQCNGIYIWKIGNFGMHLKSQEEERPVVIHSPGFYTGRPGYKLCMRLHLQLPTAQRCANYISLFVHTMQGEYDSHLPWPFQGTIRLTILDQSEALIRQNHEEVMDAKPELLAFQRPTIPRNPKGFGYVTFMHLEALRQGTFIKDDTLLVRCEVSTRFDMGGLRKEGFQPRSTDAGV
Put plainly: co-IP; FLAG-TRAF6 immunoprecipitated from HEK293T without or with co-expressed TRIP6 as competitor (HA-TRIP6; EGFP-TRIP6 or its deletion mutants); starved 6 h, without or with LPA; immunoblot for endogenous A20, CYLD. For orientation: A western blot detects proteins with antibodies after separation by electrophoresis.

Assay [1] has as its target C311A/C314A mutant FLAG-LPA2 receptor. As to the kind of experiment: co-IP; FLAG-LPA2 receptor immunoprecipitated with anti-FLAG M2 agarose from LPA1/2 DKO MEFs; starved 5 h, 2 μM LPA 30 min; immunoblot for endogenous TRIP6 and TRAF6.
Assay [2] concerns the target FLAG-LPA2 receptor, wild type. The assay is described as above.

As for “EGFP-ΔLIM1 mutant of TRIP6 (from UniProt Q15654)”, the binding result in the assay with FLAG-TRAF6 is on record as “binds”.

B1: TRAF6, endogenous in mouse embryonic fibroblasts (protein, UniProt P70196 1-530)
chain: MSLLNCENSCGSSQSSSDCCAAMAASCSAAVKDDSVSGSASTGNLSSSFMEEIQGYDVEFDPPLESKYECPICLMALREAVQTPCGHRFCKACIIKSIRDAGHKCPVDNEILLENQLFPDNFAKREILSLTVKCPNKGCLQKMELRHLEDHQVHCEFALVNCPQCQRPFQKCQVNTHIIEDCPRRQVSCVNCAVSMAYEEKEIHDQSCPLANIICEYCGTILIREQMPNHYDLDCPTAPIPCTFSVFGCHEKMQRNHLARHLQENTQLHMRLLAQAVHNVNLALRPCDAASPSRGCRPEDPNYEETIKQLESRLVRQDHQIRELTAKMETQSMYVGELKRTIRTLEDKVAEMEAQQCNGIYIWKIGNFGMHLKSQEEERPVVIHSPGFYTGRPGYKLCMRLHLQLPTAQRCANYISLFVHTMQGEYDSHLPWPFQGTIRLTILDQSEALIRQNHEEVMDAKPELLAFQRPTIPRNPKGFGYVTFMHLEALRQGTFIKDDTLLVRCEVSTRFDMGGLRKEGFQPRSTDAGV
Regarding B1, the binding entry in assay [1] is “no binding”.

B2: TRIP6, endogenous in mouse embryonic fibroblasts (protein, UniProt Q9Z1Y4 1-480)
chain: MSGPTWLPPKQPEPSRLPQGRSLPRGALGPPTAHGATLQPHPRVNFCPLPPEHCYQPPGVPEDRGPTWVGSHGTPQRLQGLPPDRGIIRPGSLDAEIDSLTSMLADLDGGRSHAPRRPDRQAFEAPPPHAYRGGSLKPSGGAVPTPMLPASHYGGPTPASYATASTPAGPAFPVQVKVAQPVRGCGLPRRGASQASGPLPGPHFPLTGRGEVWGAGYRSHREPGPGVPEGPSGVHIPAGGGRGGGHEPQGPLGQPPEEELERLTKKLVHDMSHPPSGEYFGRCGGCGEDVVGDGAGVVALDRVFHIGCFVCSTCRAQLRGQHFYAVERRAYCESCYVATLEKCSTCSEPILDRILRAMGKAYHPGCFTCVVCHRGLDGIPFTVDATSQIHCIEDFHRKFAPRCSVCGGAIMPEPGQEETVRIVALDRSFHIGCYKCEECGLLLSSEGECQGCYPLDGHILCKACSAWRIQELSATVTTDC
For B2, the figures for the binding entry in assay [1] and in assay [2] were “no binding” and “binds”, respectively.
